# In PMC10669843:
# Protein sequences, listed by entry. Tags and fused reporters are not part of them. Residues count along the entry.
# UniProt P29476: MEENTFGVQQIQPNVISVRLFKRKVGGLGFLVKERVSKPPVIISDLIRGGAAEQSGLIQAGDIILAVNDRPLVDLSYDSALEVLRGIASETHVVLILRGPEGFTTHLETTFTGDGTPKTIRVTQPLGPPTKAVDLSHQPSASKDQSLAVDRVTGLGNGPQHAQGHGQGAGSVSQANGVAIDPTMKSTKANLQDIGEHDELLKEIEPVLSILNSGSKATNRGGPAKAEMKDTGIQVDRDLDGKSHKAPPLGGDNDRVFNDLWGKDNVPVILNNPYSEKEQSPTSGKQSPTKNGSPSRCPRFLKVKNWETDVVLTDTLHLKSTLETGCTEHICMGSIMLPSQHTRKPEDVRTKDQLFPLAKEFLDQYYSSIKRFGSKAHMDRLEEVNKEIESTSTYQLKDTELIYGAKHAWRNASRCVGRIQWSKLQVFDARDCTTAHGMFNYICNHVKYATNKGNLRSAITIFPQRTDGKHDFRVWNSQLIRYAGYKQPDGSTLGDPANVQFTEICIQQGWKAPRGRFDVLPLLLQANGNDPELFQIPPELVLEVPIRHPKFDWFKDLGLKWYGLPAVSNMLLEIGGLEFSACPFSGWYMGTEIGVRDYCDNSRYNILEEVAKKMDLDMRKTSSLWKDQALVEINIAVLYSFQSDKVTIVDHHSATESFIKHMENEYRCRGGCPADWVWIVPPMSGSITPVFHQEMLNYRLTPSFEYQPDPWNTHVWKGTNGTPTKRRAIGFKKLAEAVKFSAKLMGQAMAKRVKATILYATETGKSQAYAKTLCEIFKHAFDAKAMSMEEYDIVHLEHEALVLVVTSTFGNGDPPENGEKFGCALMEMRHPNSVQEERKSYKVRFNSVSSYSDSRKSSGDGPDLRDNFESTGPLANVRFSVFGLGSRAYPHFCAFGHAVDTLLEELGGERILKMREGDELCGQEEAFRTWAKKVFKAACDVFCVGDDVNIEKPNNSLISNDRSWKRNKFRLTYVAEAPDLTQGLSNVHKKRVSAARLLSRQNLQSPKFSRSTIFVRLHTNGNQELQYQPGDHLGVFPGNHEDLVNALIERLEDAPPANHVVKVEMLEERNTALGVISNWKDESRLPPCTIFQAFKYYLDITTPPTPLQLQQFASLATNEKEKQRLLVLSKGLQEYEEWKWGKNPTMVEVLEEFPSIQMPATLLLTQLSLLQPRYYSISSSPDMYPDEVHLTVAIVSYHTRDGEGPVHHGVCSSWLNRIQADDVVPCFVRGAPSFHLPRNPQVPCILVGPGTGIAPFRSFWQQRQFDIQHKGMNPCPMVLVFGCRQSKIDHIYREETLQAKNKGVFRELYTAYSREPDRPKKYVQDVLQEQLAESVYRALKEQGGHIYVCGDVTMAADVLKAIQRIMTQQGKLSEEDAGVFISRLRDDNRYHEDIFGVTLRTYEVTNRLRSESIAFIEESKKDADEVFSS
# UniProt P10888, residues 23-169: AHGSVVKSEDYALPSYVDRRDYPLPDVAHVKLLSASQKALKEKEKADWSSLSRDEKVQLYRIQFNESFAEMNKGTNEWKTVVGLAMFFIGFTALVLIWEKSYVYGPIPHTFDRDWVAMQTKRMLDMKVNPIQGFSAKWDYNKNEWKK
# Biological target: brain mitochondrial nitric-oxide synthase (NOS; alpha NOS1 isoform) (rat (endogenous in rat brain mitochondria)) (UniProt P29476)
# Test: affinity purification with mass spectrometry; NOS1 immunoprecipitated with rabbit polyclonal anti-NOS1 R-20 (C-terminus) on protein-G agarose from digitonin-lysed whole rat brain mitochondria (IP buffer: 150 mM NaCl, 5 mM EDTA, 0.1% Triton X-100, 10 mM HEPES); 2D gel (second dimension 15% or 12.5%), spots absent from the mock gel identified by MALDI-TOF MS
substance,measurement,value
cytochrome c oxidase subunit IV (from UniProt P10888 23-169),binding,binds

# These are yes or no findings as the source states them, for the method shown. Binding seen in cells or lysates may run through a third protein. Here binding means that the protein was enriched with, or labelled near, the bait; the list need not be complete.
